In the supplement of paper PMC12819154, “High-throughput peptide-centric local stability assay extends protein–ligand identification to membrane proteins, tissues and bacteria” (Nature Structural & Molecular Biology, 2025):
This is one part of the list. Small differences around the control level are noise.

Sequences of proteins named here, by UniProt entry; tags and fusion partners are left off. A change or cut given only in a name is not applied to a line headed by its entry.
UniProt Q9CQE7: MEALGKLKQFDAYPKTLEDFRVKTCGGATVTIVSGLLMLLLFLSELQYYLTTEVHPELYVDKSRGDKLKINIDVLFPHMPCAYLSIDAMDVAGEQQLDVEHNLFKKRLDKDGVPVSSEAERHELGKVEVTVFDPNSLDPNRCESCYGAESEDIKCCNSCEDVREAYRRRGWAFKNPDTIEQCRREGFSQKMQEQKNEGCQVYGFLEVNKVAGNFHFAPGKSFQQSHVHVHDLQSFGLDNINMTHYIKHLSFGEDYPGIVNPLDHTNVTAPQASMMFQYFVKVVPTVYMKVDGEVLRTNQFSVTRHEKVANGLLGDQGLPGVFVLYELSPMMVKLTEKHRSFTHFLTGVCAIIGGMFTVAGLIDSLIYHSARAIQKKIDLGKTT
UniProt Q9CQV8: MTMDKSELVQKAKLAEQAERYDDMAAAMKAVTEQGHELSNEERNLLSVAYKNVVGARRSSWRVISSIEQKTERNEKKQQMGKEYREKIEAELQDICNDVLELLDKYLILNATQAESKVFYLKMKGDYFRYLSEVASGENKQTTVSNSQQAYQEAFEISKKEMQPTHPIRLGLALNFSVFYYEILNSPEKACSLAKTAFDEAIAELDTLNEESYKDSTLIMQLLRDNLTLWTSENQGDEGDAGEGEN
UniProt Q99P30: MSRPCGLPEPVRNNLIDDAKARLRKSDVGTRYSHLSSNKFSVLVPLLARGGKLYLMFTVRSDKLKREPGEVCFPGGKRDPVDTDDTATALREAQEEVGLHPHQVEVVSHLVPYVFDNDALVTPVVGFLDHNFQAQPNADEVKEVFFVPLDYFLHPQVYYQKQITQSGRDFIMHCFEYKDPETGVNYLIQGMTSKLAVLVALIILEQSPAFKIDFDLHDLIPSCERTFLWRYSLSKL
UniProt Q9CPZ8: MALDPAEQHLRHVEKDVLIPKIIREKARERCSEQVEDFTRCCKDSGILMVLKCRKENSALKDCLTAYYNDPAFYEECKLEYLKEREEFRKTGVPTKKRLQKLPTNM
UniProt Q9CX98: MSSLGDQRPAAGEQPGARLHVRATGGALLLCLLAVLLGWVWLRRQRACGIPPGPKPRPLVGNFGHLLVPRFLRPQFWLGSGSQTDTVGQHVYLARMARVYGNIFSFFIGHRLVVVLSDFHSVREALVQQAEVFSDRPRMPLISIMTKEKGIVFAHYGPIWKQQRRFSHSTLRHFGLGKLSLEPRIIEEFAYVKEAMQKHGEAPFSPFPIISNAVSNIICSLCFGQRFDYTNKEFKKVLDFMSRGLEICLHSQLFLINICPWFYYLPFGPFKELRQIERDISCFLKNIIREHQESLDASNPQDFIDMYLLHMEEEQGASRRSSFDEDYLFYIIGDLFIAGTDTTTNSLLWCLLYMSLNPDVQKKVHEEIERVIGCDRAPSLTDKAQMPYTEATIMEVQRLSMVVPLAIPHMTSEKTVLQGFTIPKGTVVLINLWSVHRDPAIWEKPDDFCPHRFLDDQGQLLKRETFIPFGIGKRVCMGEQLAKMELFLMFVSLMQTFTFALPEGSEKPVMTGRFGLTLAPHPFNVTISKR
UniProt Q99MR8: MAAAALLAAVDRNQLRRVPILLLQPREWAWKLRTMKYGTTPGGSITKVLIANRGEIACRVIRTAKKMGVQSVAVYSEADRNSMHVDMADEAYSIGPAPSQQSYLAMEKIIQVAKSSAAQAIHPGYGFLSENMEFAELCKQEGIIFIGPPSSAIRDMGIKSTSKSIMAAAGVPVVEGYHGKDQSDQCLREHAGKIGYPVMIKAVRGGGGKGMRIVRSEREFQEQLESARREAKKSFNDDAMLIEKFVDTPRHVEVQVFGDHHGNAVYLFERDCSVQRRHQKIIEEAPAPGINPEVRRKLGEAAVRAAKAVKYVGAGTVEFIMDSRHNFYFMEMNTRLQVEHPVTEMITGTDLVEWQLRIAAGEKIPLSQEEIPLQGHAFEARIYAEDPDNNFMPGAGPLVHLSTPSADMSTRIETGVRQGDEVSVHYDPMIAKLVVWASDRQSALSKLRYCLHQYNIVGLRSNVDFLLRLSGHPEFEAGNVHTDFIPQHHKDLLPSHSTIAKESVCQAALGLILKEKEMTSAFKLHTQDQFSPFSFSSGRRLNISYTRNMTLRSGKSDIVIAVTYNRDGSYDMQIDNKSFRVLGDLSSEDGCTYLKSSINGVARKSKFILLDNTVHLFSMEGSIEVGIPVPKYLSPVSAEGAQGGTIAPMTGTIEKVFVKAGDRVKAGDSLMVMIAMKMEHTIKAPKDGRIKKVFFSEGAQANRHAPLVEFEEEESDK
UniProt Q9CQ65: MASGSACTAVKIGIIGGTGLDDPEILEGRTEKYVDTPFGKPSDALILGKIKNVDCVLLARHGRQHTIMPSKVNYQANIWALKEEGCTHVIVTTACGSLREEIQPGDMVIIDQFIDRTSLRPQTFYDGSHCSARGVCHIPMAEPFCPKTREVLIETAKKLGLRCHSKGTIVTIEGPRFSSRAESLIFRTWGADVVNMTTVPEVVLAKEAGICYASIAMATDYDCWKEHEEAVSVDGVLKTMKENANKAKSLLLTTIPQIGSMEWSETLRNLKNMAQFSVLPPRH
UniProt Q99LG2: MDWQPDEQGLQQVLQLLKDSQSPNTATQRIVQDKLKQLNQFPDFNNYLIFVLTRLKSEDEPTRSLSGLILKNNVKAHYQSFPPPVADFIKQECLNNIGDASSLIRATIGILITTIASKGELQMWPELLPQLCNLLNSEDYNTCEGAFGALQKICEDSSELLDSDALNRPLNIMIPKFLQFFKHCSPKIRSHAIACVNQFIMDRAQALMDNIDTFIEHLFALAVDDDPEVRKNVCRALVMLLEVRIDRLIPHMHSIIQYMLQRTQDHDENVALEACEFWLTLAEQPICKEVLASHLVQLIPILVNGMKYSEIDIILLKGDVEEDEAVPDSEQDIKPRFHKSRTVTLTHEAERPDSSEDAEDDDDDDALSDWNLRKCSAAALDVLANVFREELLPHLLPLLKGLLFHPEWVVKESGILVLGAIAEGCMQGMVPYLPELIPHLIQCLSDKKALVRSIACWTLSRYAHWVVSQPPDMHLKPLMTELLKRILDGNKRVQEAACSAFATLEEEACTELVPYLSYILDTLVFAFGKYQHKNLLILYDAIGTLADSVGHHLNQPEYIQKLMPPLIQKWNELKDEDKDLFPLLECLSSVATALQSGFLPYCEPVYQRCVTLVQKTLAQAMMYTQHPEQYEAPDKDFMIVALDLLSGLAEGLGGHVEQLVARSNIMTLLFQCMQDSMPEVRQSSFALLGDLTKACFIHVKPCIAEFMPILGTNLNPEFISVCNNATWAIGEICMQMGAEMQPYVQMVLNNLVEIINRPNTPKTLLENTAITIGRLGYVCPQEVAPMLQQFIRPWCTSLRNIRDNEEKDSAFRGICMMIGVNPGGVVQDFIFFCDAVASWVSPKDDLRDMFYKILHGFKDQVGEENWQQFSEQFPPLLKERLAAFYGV
UniProt Q99KU0: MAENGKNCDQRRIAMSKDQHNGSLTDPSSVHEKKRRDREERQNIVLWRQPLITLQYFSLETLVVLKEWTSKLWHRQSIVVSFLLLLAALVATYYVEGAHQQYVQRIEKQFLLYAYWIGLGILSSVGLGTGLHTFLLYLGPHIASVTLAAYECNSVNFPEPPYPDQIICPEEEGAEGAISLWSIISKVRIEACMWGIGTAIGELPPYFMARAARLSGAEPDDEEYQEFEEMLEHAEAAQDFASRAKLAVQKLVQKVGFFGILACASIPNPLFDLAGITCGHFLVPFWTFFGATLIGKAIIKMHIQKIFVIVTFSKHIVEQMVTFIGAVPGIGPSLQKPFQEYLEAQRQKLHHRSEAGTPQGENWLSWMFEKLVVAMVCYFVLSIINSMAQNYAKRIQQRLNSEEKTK
UniProt Q9CQR4: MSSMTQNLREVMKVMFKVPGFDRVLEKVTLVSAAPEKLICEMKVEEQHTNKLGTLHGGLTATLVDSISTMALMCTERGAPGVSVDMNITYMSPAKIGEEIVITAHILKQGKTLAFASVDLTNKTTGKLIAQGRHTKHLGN
UniProt Q9CQ92: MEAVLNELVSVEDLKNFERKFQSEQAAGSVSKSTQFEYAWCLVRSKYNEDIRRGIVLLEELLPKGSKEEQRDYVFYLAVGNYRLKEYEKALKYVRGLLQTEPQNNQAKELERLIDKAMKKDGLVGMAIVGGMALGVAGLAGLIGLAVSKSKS
UniProt Q99LI2: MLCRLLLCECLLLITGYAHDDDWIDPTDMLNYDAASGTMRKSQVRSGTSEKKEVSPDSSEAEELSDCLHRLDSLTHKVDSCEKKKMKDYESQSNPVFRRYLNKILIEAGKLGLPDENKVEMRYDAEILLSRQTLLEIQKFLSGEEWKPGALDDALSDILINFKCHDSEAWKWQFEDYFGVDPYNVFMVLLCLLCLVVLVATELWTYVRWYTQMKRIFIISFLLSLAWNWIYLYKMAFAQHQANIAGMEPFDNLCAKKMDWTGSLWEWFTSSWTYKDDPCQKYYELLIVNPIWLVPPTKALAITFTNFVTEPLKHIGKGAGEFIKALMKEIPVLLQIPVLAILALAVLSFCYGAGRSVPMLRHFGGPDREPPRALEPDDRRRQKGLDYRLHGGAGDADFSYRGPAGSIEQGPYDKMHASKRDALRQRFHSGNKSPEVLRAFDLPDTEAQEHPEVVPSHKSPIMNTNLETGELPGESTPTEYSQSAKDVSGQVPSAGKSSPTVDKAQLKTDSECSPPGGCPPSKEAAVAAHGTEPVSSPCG
UniProt Q99N28: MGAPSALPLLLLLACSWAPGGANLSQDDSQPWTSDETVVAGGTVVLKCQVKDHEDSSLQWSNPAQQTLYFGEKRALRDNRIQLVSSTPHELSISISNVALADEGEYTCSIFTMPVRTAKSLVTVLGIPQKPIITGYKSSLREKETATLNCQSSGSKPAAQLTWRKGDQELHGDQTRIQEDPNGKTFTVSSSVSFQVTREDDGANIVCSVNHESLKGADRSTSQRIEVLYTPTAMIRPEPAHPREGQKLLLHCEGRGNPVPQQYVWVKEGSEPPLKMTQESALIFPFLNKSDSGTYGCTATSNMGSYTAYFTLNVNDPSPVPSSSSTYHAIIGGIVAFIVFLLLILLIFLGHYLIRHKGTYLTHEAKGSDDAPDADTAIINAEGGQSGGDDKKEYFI
UniProt Q99LN9: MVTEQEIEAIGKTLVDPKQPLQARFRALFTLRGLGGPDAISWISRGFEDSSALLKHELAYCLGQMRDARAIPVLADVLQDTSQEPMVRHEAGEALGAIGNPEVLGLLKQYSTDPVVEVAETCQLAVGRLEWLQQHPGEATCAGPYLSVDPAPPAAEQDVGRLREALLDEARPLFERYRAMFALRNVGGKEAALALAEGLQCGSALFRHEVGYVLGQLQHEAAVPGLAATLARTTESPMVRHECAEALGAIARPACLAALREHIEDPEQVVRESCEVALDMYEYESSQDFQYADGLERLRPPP
UniProt Q99LY9: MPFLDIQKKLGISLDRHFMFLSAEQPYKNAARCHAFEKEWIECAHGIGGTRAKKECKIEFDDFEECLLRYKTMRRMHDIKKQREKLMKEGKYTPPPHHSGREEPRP
UniProt Q9CSN1: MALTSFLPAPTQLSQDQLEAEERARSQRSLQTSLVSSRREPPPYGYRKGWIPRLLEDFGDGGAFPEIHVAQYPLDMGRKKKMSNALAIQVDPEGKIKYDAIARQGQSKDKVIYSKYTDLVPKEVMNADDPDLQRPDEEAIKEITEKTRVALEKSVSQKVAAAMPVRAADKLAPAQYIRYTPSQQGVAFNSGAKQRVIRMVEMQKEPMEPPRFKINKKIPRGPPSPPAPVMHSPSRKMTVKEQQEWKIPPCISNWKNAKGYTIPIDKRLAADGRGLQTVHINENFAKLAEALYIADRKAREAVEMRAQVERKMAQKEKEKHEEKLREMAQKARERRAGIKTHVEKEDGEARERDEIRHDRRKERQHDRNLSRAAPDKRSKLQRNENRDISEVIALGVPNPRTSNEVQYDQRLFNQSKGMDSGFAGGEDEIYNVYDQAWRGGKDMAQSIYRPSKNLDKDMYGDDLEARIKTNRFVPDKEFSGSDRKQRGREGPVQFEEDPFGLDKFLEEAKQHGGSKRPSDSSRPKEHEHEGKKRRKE
UniProt Q99PG2: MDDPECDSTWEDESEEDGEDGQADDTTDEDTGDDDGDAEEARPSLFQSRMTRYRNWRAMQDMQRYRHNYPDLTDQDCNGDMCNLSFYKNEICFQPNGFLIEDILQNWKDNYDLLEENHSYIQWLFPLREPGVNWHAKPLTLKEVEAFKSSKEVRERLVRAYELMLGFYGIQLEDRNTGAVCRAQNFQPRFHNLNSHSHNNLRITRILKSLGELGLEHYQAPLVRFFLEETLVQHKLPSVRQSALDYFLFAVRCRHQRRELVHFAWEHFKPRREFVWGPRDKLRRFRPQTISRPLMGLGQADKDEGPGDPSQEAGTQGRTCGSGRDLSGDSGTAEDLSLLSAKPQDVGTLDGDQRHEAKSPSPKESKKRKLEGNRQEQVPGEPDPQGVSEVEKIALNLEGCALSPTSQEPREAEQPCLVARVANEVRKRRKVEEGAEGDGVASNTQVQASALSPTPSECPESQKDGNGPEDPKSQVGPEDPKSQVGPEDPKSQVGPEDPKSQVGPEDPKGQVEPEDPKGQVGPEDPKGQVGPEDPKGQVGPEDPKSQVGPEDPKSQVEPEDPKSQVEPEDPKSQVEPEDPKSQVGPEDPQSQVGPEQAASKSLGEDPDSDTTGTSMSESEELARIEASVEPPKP

Compound: CN[C@@H]1C[C@H]2O[C@@](C)([C@@H]1OC)n1c3ccccc3c3c4c(c5c6ccccc6n2c5c31)C(=O)NC4 [staurosporine]
Test: log2 fold change of pooled soluble protein (PISA), ligand vs vehicle (log2 ratio); higher = more thermally stabilized
Conditions: ligand concentration: 20 uM; assay format: PISA pool 52.9/55.5/58.6 C

Target | log2 fold change of pooled soluble protein
UniProt Q99JP6 | 0.303
UniProt Q9CQQ7 | -0.121
UniProt Q99KQ4 | 0.0354
UniProt Q9CQE7 | -0.155
UniProt Q9CQV8 | 0.0961
UniProt Q99P30 | 0.0921
UniProt Q99LC8 | 0.335
UniProt Q9CRA8 | -0.0297
UniProt Q9CPZ8 | -0.0495
UniProt Q9CX98 | 0.043
UniProt Q9CQ79 | -0.0597
UniProt Q99MR8 | 0.0359
UniProt Q9CQ65 | -0.00365
UniProt Q9CPY7 | -0.356
UniProt Q9CQY5 | 0.00499
UniProt Q9CQ00 | 0.256
UniProt Q99N42 | -0.0173
UniProt Q99JT5 | -0.125
UniProt Q9CQ56 | -0.038

Target | log2 fold change of pooled soluble protein
UniProt Q9CQA6 | 0.189
UniProt Q99LG2 | -0.172
UniProt Q99KU0 | 0.18
UniProt Q9CQR4 | -0.0378
UniProt Q9CQ92 | -0.263
Q9CPZ6;Q9CQZ0 | -0.143
UniProt Q99PG0 | 0.0566
UniProt Q99LI2 | -0.0409
UniProt Q99N28 | -0.0216
UniProt Q99LN9 | 0.0477
UniProt Q99LY9 | 0.00565
UniProt Q9CSN1 | -0.00347
UniProt Q9CR13 | 0.247
UniProt Q99LD8 | -0.0349
UniProt Q99L20 | -0.036
UniProt Q9CXD6 | -0.00856
UniProt Q99PG2 | 0.124
UniProt Q99N69 | -0.2

Another view of part of the listing above.

| Target | log2 fold change of pooled soluble protein |
| --- | --- |
| UniProt Q9CQQ7 | -0.121 |
| UniProt Q9CRA8 | -0.0297 |
| UniProt Q9CQ79 | -0.0597 |
| UniProt Q9CPY7 | -0.356 |
| UniProt Q99KU0 | 0.18 |
| UniProt Q99LI2 | -0.0409 |
| UniProt Q99N28 | -0.0216 |
